A short description of the assay: qHTS Assay for Lipid Storage Modulators in Drosophila S3 Cells.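 For cell number change: cells counted by Cell Tracker Red CMTPX staining in the red channel.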 Conditions: BODIPY lipid droplet fluorescence, 18-24 h; for cell number change: measured here: cell count max response, cells fed with added oleic acid. Summed up:
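Drosophila S3 cells got compounds at several concentrations plus oleic acid (400 uM solution). Laser-scanning cytometry with 488 nm excitation read lipid droplets at 500-530 nm and cells at 575-640 nm. Percent activity was relative to 20 uM Triacsin C.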
(In general: Quantitative high-throughput screening tests each substance at several concentrations.)

Where [1] appears, read: measured here: lipid fluorescence (Fed channel) AC50, cells fed with added oleic acid.
[2] abbreviates: measured here: cell number channel AC50, cells fed with added oleic acid.

This is one part of the list. Further columns of the screen follow, without active or inactive calls. Compounds called inactive in the main read-out are mostly missing here. Potencies come from curve fits of mixed quality, noted in brackets.

On to `CCOc1cc(C(c2c(C)[nH][nH]c2=O)c2c(C)[nH][nH]c2=O)ccc1OCc1ccc([N+](=O)[O-])cc1`, for which the cell number change was 20.5%. Turning to `CCOc1cc(/C=C2/C(=N)N3C=CSC3=NC2=O)ccc1OCCCOc1ccccc1C`, the cell number change is -28.7%. Take `CC(OC(=O)c1nsc(Cl)c1Cl)C(=O)NCCc1ccccc1` (stereo not drawn): the cell number change worked out at 11.5%. As for `O=C(COC(=O)c1cncc(Br)c1)NC1CCCCC1`, the cell number change is -22%. Besides, under setting [1], the AC50 is 6.51 µM [falling, partial curve, poor fit].

For `CS(=O)(=O)NCC(c1cccnc1)N1CCN(c2ccccc2F)CC1` (stereo not drawn), the cell number change is 10.8%. Also, under setting [1], the AC50 was 23.1 µM [rising, partial curve, poor fit]. For the compound `CCN(CC)CCn1c(NCc2cccc(OC)c2OC)nc2ccccc21`, the cell number change worked out at 8.8%. Under setting [1], the AC50 is 10.3 µM [rising, partial curve, poor fit]. Take `COc1c2ccoc2c(OC(C)=O)c2oc(C)cc(=O)c12`: the cell number change was -43.1%. For the same compound, under setting [2], the AC50 is 1.64 µM [falling, partial curve]. In addition, the AC50 under setting [1] is 0.58 µM [rising, single point]. For `COc1ccc(-c2cc(-c3ccccc3)c(C#N)c(S(C)(=O)=O)n2)cc1`, the AC50 under setting [2] was 6.51 µM [rising, single point].

`CCOc1ccccc1NC(=O)NCc1ccc2c(c1)OCO2`: the cell number change turned out to be 49.3%. Regarding `Cc1ccc(-c2nc3ncccc3o2)cc1NC(=O)CC(C)C`, the cell number change was -16.7%. Besides, under setting [1], the AC50 was 1.46 µM [falling, full curve, poor fit]. Turning to `Cc1ccc(SCC(=O)NCc2cccnc2)cc1`, the cell number change is 60.2%. Under setting [2], the AC50 is 13 µM [rising, partial curve, poor fit]. Further, the AC50 under setting [1] was 6.51 µM [rising, single point]. For `CC(C)CC(=O)c1c[nH]c(C(=O)NCc2ccc(F)cc2)c1`, the AC50 under setting [1] was 1.16 µM [rising, full curve, poor fit]. On to `CC1CN(C(=O)CS(=O)(=O)Cc2ccc(Cl)cc2)CC(C)O1` (stereo not drawn), for which the cell number change is -16.6%. Further, the AC50 under setting [1] is 0.398 µM [falling, full curve, poor fit]. For `CC1CC(C)CN(S(=O)(=O)c2ccc(NC(=O)C3CC(=O)N(Cc4ccccc4)C3)cc2)C1` (stereo not drawn), the cell number change turned out to be 32.5%. In addition, under setting [2], the AC50 is 29.1 µM [rising, single point]. Further, the AC50 under setting [1] is 29.1 µM [falling, single point]. Regarding `O=[N+]([O-])c1ccc(-c2csc(N/N=C/c3cccnc3)n2)cc1`, the cell number change was -8.49%. Further, the AC50 under setting [1] was 13 µM [falling, partial curve]. `CC(C)OCCCN(CC(O)c1ccccc1)CC(O)c1ccccc1` (stereo not drawn): the cell number change is -16.3%. In addition, the AC50 under setting [2] is 0.103 µM [falling, full curve, poor fit]. For the same compound, the AC50 under setting [1] was 0.116 µM [falling, full curve]. Turning to `C=CCn1c(COc2ccc(Cl)cc2)nnc1SCc1ccc(C#N)cc1`, the cell number change turned out to be 10.5%. Under setting [2], the AC50 was 2.06 µM [rising, partial curve]. Moreover, under setting [1], the AC50 is 0.92 µM [rising, full curve]. Turning to `Nc1c([N+](=O)[O-])cc(-c2cnc[nH]2)cc1[N+](=O)[O-]`, the cell number change turned out to be 7.22%. For the same compound, under setting [2], the AC50 is 2.59 µM [rising, single point]. As to `Oc1ccc(Cl)cc1/C=C/c1ccc2cccc(O)c2n1`, the cell number change is -26.8%. For the same compound, the AC50 under setting [1] was 32.6 µM [falling, partial curve, poor fit]. `CCCCC(=Nc1ccc(N)cc1)C1=C(O)C(C(=O)OC)C(C)(C)CC1=O` (stereo not drawn): under setting [1], the AC50 was 2.06 µM [rising, partial curve, poor fit].

Consider `COc1ccccc1N1CCN(Cc2nc3ccsc3c(=O)[nH]2)CC1`, for which the cell number change is -2.37%. Under setting [1], the AC50 was 0.103 µM [rising, full curve, poor fit]. Take `CCCS(=O)(=O)c1c(S(=O)(=O)CCC)c2ccccn2c1C(=O)OC`: the cell number change was -11.3%. `CCOC(=O)C(Cc1ccccc1)NC(=O)CCc1nnc2ccc(N3CCOCC3)nn12` (stereo not drawn): the cell number change stood at 11.8%. On to `O=C(COC(=O)CC(c1ccccc1)c1ccccc1)NCc1ccccc1`, for which the cell number change amounted to 8.11%. Moreover, the AC50 under setting [2] is 3.66 µM [rising, single point]. Also, under setting [1], the AC50 is 3.66 µM [rising, full curve, poor fit].

On to `COc1ccc(OC)c(NC(=O)CN2CCc3ccccc3C2)c1`, for which the cell number change came to 9.27%.

`CCN(CC)CCNC(=O)Cn1c(C)cc2ccccc2c1=O`: the cell number change was -29.9%. Under setting [1], the AC50 is 10.3 µM [falling, partial curve, poor fit].

For `COc1ccc2c(c1)cc(C)c1nnc(SCC(=O)N3CCN(C(=O)c4ccco4)CC3)n12`, the cell number change was -0.776%. For the same compound, the AC50 under setting [1] is 9.2 µM [rising, partial curve]. Consider `CC(C)Cc1nnc(NC(=O)C2CCCC2)s1`, for which the cell number change came out at 18.8%. Besides, the AC50 under setting [2] is 3.26 µM [rising, partial curve, poor fit]. The AC50 under setting [1] is 0.92 µM [rising, partial curve]. With `Cc1ccc(Cl)cc1NC(=O)CC(O)(C(F)(F)F)C(F)(F)F`, the cell number change is -208%. The AC50 under setting [1] is 0.731 µM [rising, partial curve].

For `COc1ccc(Cl)cc1N1C(=O)/C(=C\c2sccc2C)N=C1SCC(=O)NC1CC1`, the cell number change was 3.38%. For the same compound, the AC50 under setting [2] was 0.92 µM [rising, full curve]. Moreover, the AC50 under setting [1] is 1.3 µM [rising, full curve]. For the compound `O=C(Nc1ccc(Cc2nc3ccccc3s2)cc1)c1ccncc1`, the cell number change was found to be 2.63%. Besides, the AC50 under setting [1] is 35.5 µM [rising, single point]. With `CCOC(=O)/C(C#N)=C/c1cn(CCOc2ccccc2)c2ccccc12`, the cell number change was -4.32%. Further, under setting [1], the AC50 is 0.82 µM [rising, partial curve, poor fit].

Consider `CCC(=O)c1cc(F)c(N2CCN(S(=O)(=O)c3ccc(C)cc3)CC2)cc1C`, for which the cell number change was -21.4%. Besides, the AC50 under setting [1] was 2.31 µM [rising, partial curve, poor fit].

In the case of `CC1CCc2c(sc(NC(=O)CSc3ncnc4c3cnn4-c3ccccc3Cl)c2C#N)C1` (stereo not drawn), the cell number change turned out to be 0.621%. Besides, the AC50 under setting [1] is 0.291 µM [falling, full curve, poor fit].

Consider `CC(=O)c1cccc(NC(=S)Nc2ccn(Cc3cccc4ccccc34)n2)c1`, for which the cell number change amounted to 9.72%.

Take `O=C(Nc1ccc2nc(-c3cccs3)[nH]c2c1)c1cccs1`: the cell number change was -20.7%. Further, the AC50 under setting [1] was 4.11 µM [rising, full curve]. Regarding `O=c1[nH]c2c(s1)C(c1ccc(O)cc1)C1C3CCC(C3)C1S2` (stereo not drawn), the cell number change is 1.65%. Besides, the AC50 under setting [1] is 18.4 µM [falling, single point]. As for `O=C(CC1C(=O)NCCN1Cc1ccc(-c2ccccc2)cc1)NCCCn1ccnc1` (stereo not drawn), the cell number change was 2.19%. In addition, under setting [1], the AC50 was 0.82 µM [falling, full curve, poor fit]. For `Cc1ccc(N(CC(=O)NC(C)c2ccccc2)S(=O)(=O)c2cccs2)cc1` (stereo not drawn), the cell number change was -51%. For the same compound, the AC50 under setting [2] is 29.1 µM [falling, single point].

Consider `O=C(NCc1ccccc1)c1nc[nH]c1C(=O)N1CCN(c2ccccc2)CC1`, for which the cell number change was -5.9%. Besides, the AC50 under setting [1] is 0.0092 µM [falling, full curve, poor fit]. Consider `Cc1sc2nc3n(c(=O)c2c1C)CCCS3`, for which the cell number change is -13.1%.

As to `O=C(c1cc2nc(-c3ccccc3)cc(C(F)(F)F)n2n1)N1CCOCC1`, the cell number change turned out to be 5.66%. In addition, the AC50 under setting [1] was 2.91 µM [rising, partial curve, poor fit]. As for `O=c1nc2n(c3c1oc1ccccc13)Cc1ccccc1-2`, the AC50 under setting [2] is 0.13 µM [rising, full curve, poor fit]. Consider `COc1ccc(S(=O)(=O)N(CCCN2CCCC2=O)Cc2cc3c(C)ccc(C)c3[nH]c2=O)cc1`, for which the AC50 runs as follows: under setting [2], 0.366 µM [rising, partial curve, poor fit]; under setting [1], 0.731 µM [rising, partial curve]. As to `COc1ccc(C(=O)N/C(=C/c2ccccc2F)C(=O)NCCN2CCOCC2)cc1OC`, the cell number change was -26.3%. For the same compound, under setting [1], the AC50 was 0.58 µM [falling, single point]. Turning to `O=C(NN=C1CCCC1)c1ccccc1O`, the cell number change turned out to be 5.56%. Further, under setting [1], the AC50 was 29.1 µM [rising, single point].

`N#Cc1c(SCC(=O)Nc2ccc(C(F)(F)F)cc2)sc2c(O)cc(=O)[nH]c12`: the cell number change turned out to be 9.24%. For the same compound, the AC50 under setting [1] is 29.1 µM [falling, single point]. Turning to `O=c1cc(CSc2nnc(COc3ccccc3Cl)o2)nc2sccn12`, the cell number change is 8.14%. For the compound `CCOC(=O)c1cccc(NC(=O)CCCn2c(=O)c3cccn3c3cccnc32)c1`, the cell number change was -11.1%. Besides, the AC50 under setting [1] was 8.2 µM [falling, partial curve]. As to `CCSc1ccc(C(=O)NCC(=O)O)cc1`, the cell number change is -0.794%. For `CCN(CC)c1nc(N)n(CCSC(=S)N(C)C)c(=O)n1`, the cell number change was -12.9%. Further, the AC50 under setting [1] is 3.66 µM [falling, single point]. On to `CCOC(=O)c1sc(NC(=O)c2ccc(S(=O)(=O)N3CCOCC3)cc2)cc1C`, for which the cell number change was -10.7%. As to `COc1ccc(CNC(=O)Cn2nc(-c3ccc4c(c3)OCCO4)ccc2=O)cc1`, the cell number change was -1.67%. Take `Cc1cccc(N(CC(N)=O)S(C)(=O)=O)c1C`: the cell number change was -150%. Further, the AC50 under setting [2] is 29.1 µM [falling, single point]. Moreover, the AC50 under setting [1] is 29.1 µM [falling, single point]. Take `Cc1ccc(C(=O)Nn2cnc3ccccc3c2=O)cc1C`: the cell number change is -15.3%. Moreover, under setting [1], the AC50 was 3.26 µM [rising, single point]. Consider `CCc1ccc(OCCCC(=O)Nc2ccc(S(=O)(=O)Nc3cc(C)nc(C)n3)cc2)cc1`, for which the cell number change is 9.66%.

Take `COc1ccc(Cl)c(Cn2c(NCc3ccco3)nc3c2c(=O)n(C)c(=O)n3C)c1`: the cell number change is -62.2%. Under setting [2], the AC50 is 5.8 µM [falling, full curve]. Also, the AC50 under setting [1] was 1.64 µM [falling, full curve]. Turning to `COc1ccc(C)cc1NC(=S)NNC(=O)c1c(Br)cnn1C`, the cell number change was -39.7%. For the compound `CCc1nnc(SCc2ccc(CSc3nnc(CC)n3N)cc2)n1N`, the cell number change was determined as 5.12%. The AC50 under setting [1] is 2.31 µM [falling, partial curve, poor fit].

Consider `O=C(Cc1n[nH]c(=O)c2ccccc12)Nc1cc(Cl)ccc1-n1cncn1`, for which the cell number change stood at 23.8%. The half-maximal activity concentration (AC50) under setting [1] was 0.366 µM [rising, full curve]. For the compound `CN(C)S(=O)(=O)n1cc(/C=C(\NC(=O)c2ccccc2)C(=O)NCCCn2ccnc2)c2ccccc21`, the cell number change is 9.63%. Further, the AC50 under setting [1] was 4.11 µM [rising, full curve].

A word on the AC50: it is the concentration at which the activity in the assay is half-maximal.

These data come from PubChem BioAssay AID2685 (National Center for Advancing Translational Sciences (NCATS), 2010).
